Data reported in PubChem BioAssay AID1487 (National Center for Advancing Translational Sciences (NCATS), 2009).
In all, about 200,000 compounds went through this assay and about 25 (0.01%) were called active. The shares of active, inactive and inconclusive entries below differ from those in the screen. Calls come from the whole dose curve; as a rule, active = well fitted inhibition curve with a large enough effect in the signal ratio, with a control signal flat (not every such curve was filed as active); inconclusive = small, poorly fitted or top-dose-only effect, or effect the other way, or a change in a side signal; inactive = flat fitted curve, though single readings scatter; the % refers to the signal ratio. Where the call is inconclusive, the potency comes from a doubtful curve fit.

test: qHTS Assay for Modulators of Lamin A Splicing; conditions: HeLa LMNA splicing GFP/RFP minigene ratio, 48 h; ratio change, negative = inhibition: at 46.1 µM (top of the series) unless noted
Method in brief: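 S3 HeLa cells stably expressing lamin A-EGFP splicing minigene plus DsRed2, 600 cells/well, 48 h compound exposure at 37C. Laser-scanning cytometry; analysed as GFP (500-530 nm)/RFP (575-640 nm) total intensity ratio; 0.5% DMSO vehicle.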
% is set by controls: 0 for no effect and ±100 for the full control effect; potency is the fitted concentration of half-maximal effect.

Row | SMILES | ratio change, negative = inhibition | Potency
1 | COc1ccc(NC(=O)CN2C(=O)COc3ccc(S(=O)(=O)N4CCCCCC4)cc32)cc1 | inconclusive: 28.2% [at 46 µM] | 
2 | CCOC(=O)c1ccc(NC(=O)CSc2nc3sc(C(=O)O)c(C)c3c(=O)[nH]2)cc1 | inconclusive: -20.3% [at 46 µM] | 
3 | Cc1ccc(-n2c(=O)cc(N3CCN(c4ccccc4Cl)CC3)[nH]c2=O)cc1 | inactive | 
4 | O=C(Nc1cccc(Cl)c1Cl)c1cc(S(=O)(=O)NCc2ccc3c(c2)OCO3)ccc1F | inconclusive: -3.67% [at 46 µM] | 
5 | CCN(C(=O)CSc1ncnc2sc(C)c(C)c12)C1CCS(=O)(=O)C1 (configuration not stated) | inactive | 
6 | CC(=O)O[C@@H](C)C[N+](C)(C)C | inconclusive: -3.66% | 
7 | COc1ccc(C(=O)CSc2ccc(-c3ccc(C)cc3)nn2)cc1 |  | inconclusive: 35.5 µM [falling, single point]
8 | Cc1nn2c(=O)cc(COC(=O)Cc3ccccc3)nc2s1 | inconclusive: 6.94% [at 46 µM] | 
9 | COC(=O)c1cc2sccc2n1Cc1nc(-c2ccc(OC)cc2)oc1C | inconclusive: -9.24% | 
10 | Nc1ccc(O)cc1C(=O)OCC(=O)C12CC3CC(CC(C3)C1)C2 | inactive | 
11 | COc1ccc(-c2c3c(cc(C)[n+]2[O-])oc2ccc(OC)cc23)cc1 |  | inconclusive: 22.4 µM [fluorescent, single point]
12 | COc1ccc(N=C2C(=O)Nc3c(C)cccc32)cc1 | inactive | 
13 | COc1ccc(-c2csc(NC(=O)CSc3nc(C)nc4sc(C(=O)O)c(C)c34)n2)cc1 |  | inconclusive: 10 µM [activator, partial curve, poor fit]
14 | Cc1ccc(C(=O)N2CCSCC2)cc1 | inactive | 
15 | O=C(Nc1ccc(N2C(=O)C3C4C=CC(C4)C3C2=O)cc1)Nc1cccnc1 (configuration not stated) | inactive | 
16 | O=C(NCCc1ccccc1)C1CCC(Cn2c(=O)c3ccccc3n(Cc3cccnc3)c2=O)CC1 (configuration not stated) |  | inconclusive: 14.1 µM [fluorescent, single point]
17 | CCOC(=O)Cn1c(=NC(=O)C2COc3ccccc3O2)sc2cc(S(N)(=O)=O)ccc21 (configuration not stated) | inactive | 
18 | O=C(CN1CCCc2ccccc21)NCc1ccccc1Cl | inactive | 
19 | Cc1ccc2nc(-c3ccc(NS(=O)(=O)c4ccccc4)cc3)sc2c1 | inactive | 
20 | Cc1nn(C(=O)c2ccc(Cl)cc2)c(C)c1S(=O)(=O)N1CCCCCC1 | inactive | 
21 | O=C(Nc1ccc(NC(=O)c2sc3ccccc3c2Cl)cc1Cl)c1ccco1 |  | inconclusive: 35.5 µM [cytotoxic, single point]

Row | SMILES | ratio change, negative = inhibition | Potency
22 | CCOc1ccccc1-c1nc(CN(Cc2cnn(C)c2)C(C)C)c(C)o1 | inactive | 
23 | CCN(C(=O)CSc1nnc(-c2ccc(F)cc2)c2ccccc12)C1CCS(=O)(=O)C1 (configuration not stated) |  | inconclusive: 5.62 µM [inhibitor, partial curve]
24 | CCOCCCNC(=S)NCCCNc1nc2c(C)c(C)ccc2cc1C#N | inconclusive: 52.7% [at 46 µM] | 
25 | CC(C)(CO)NC(=O)CC1C(=O)NCCN1CC(c1ccccc1)c1ccccc1 (configuration not stated) | inconclusive: 15.5% [at 46 µM] | 
26 | CCOC(=O)c1nc(S(C)(=O)=O)ncc1Cl | inconclusive: 35.6% | 
27 | CN(C)c1ccc(/C(=N\O)C(F)(F)F)cc1 | inconclusive: 14.7% | 
28 | CCOc1cc(/C=N/n2cnnc2)c(Br)cc1O | inconclusive: 8.52% | 
29 | C/C(=N\NC(=O)c1ccccc1C)c1ccc(N2CCOCC2)cc1 | inconclusive: 32.8% | 
30 | COc1ccc(S(=O)(=O)N(C)c2ccc(C(=O)N3CCCC3)cc2)cc1 | inconclusive: 21.1% [at 46 µM] | 
31 | COc1c(Cl)cc(-c2noc(C)c2C(=O)NCc2ccc3c(c2)OCO3)cc1Cl | inactive | 
32 | Cc1cccc(OCCNC(=O)c2ncn[nH]2)c1 | inconclusive: 33.5% | 
33 | COC(=O)c1ccccc1NC(=O)c1ccc(COc2ccc3c(c2)CCC3)cc1 | inconclusive: 6.31% | 
34 | COc1ccc(Cc2noc(CN(C)Cc3ccc(-n4cccn4)cc3)n2)cc1OC | inconclusive: 13.2% [at 46 µM] | 
35 | NC(=O)C[n+]1cccc(/C=N/O)c1 | inconclusive: 10% [at 46 µM] | 
36 | Nc1nc2ncc(CNc3ccc(C(=O)NC(CCC(=O)O)C(=O)O)cc3)nc2c(=O)[nH]1 (configuration not stated) | inconclusive: -11.6% | 
37 | O=C(Nc1cccc(S(=O)(=O)Nc2ccc(Cl)cc2)c1)c1cc2c(s1)CCCC2 | inconclusive: -39.5% | 
38 | CCOC(=O)CSc1nnc2n(Cc3ccccc3)c(=O)c3c4c(sc3n12)CCC4 | inactive | 
39 | CCc1ccc(-c2[nH]nc3nc(-c4ccc(OC)cc4)cc(C(=O)NCCCOC)c23)cc1 | inconclusive: 16% [at 46 µM] | 
40 | COc1cc(/C=C2\C(=O)NN(c3ccc(C)cc3)C2=O)cc([N+](=O)[O-])c1O | inconclusive: 48% [at 46 µM] | 
41 | CC(NS(=O)(=O)c1cccc(Cl)c1)C(=O)N(C)C1CCN(C)CC1 (configuration not stated) | inactive | 
42 | COc1ccc(-c2nc(SCC(=O)N3CCN(c4ccc(F)cc4)CC3)n[nH]2)cc1 | inconclusive: -0.13% [at 46 µM] | 

Row | SMILES | ratio change, negative = inhibition | Potency
43 | COc1ccc(CNCC(=O)Nc2sccc2C#N)cc1 | inactive | 
44 | Cn1c(Sc2ccccc2Cl)c(C=O)c2ccccc21 | inconclusive: -30.5% | 
45 | c1ccc(CSc2nnc(-c3sccc3-n3cccc3)o2)cc1 | inconclusive: 4.56% | 
46 | COc1ccc(OC)c(Nc2cc(-c3ccccc3)nc(N)n2)c1 | inconclusive: -7.98% | 
47 | S=C(NCCN1CCOCC1)Nc1ccc(-c2nc3ccccc3[nH]2)cc1 | inconclusive: -32.6% [at 46 µM] | 
48 | CCN(CC)c1ccc2cc(C=O)c(=O)oc2c1 | inconclusive: 3.29% | 
49 | Cc1cc(/C=N/NC(=O)c2ccccn2)c(C)n1-c1cccc([N+](=O)[O-])c1 | inactive: 13.8% [at 9.22 µM] | 
50 | COc1cccc(N2CCN(C(=O)C3Cc4ccccc4N3C(C)=O)CC2)c1 (configuration not stated) | inactive | 
51 | O=[N+]([O-])c1cc(Cl)c2cccnc2c1O |  | inconclusive: 10 µM [inhibitor, partial curve]
52 | Cc1ccccc1OCC(=O)OCc1cc(=O)n2nc(C3CC3)sc2n1 | inactive | 
53 | O=[N+]([O-])c1ccc(N2CCOCC2)cc1NC(c1ccccc1)c1ccccc1 | inconclusive: 8.38% | 
54 | COc1ccc(CC(=O)NCCc2sc3nc(-c4ccc(OC)cc4)nn3c2C)cc1 | inconclusive: -12.1% [at 46 µM] | 
55 | S=C(Nc1ccc2nsnc2c1)N1CCCCCC1 | inconclusive: 0.141% [at 46 µM] | 
56 | C=CCc1cccc(C=Nc2cccn3cc(-c4ccccc4)nc23)c1O | inconclusive: -2.44% [at 46 µM] | 
57 | OCCNCC12CC3CC(CC(C3)C1)C2 | inconclusive: 1.92% [at 46 µM] | 
58 | CCOC(=O)/C(C#N)=C/c1cc2ccccc2nc1N1CCOCC1 | inactive | 
59 | COc1cccc(C(=O)Nc2ccc(N3CCN(Cc4ccccc4)CC3)cc2)c1 |  | inconclusive: 12.6 µM [fluorescent, single point]
60 | CCOC(=O)c1nnn(-c2nonc2N)c1C | inactive | 
61 | COc1cc(/C=N/Nc2ccc(F)cc2F)cc(OC)c1O | inconclusive: 23.4% | 
62 | CC1CC(C)CN(C(=O)Cc2c(C(=O)O)[nH]c3ccc(Cl)cc23)C1 (configuration not stated) | inconclusive: 15.4% [at 9.22 µM] | 
63 | CCOC(=O)C1=C(Nc2ccc(Cl)cc2)OCC1=O | inconclusive: 4.36% [at 46 µM] | 

6 compounds from above, sorted by number of heavy atoms, smallest number first.
Row | SMILES | ratio change, negative = inhibition | Potency
57 | OCCNCC12CC3CC(CC(C3)C1)C2 | inconclusive: 1.92% [at 46 µM] | 
55 | S=C(Nc1ccc2nsnc2c1)N1CCCCCC1 | inconclusive: 0.141% [at 46 µM] | 
61 | COc1cc(/C=N/Nc2ccc(F)cc2F)cc(OC)c1O | inconclusive: 23.4% | 
45 | c1ccc(CSc2nnc(-c3sccc3-n3cccc3)o2)cc1 | inconclusive: 4.56% | 
50 | COc1cccc(N2CCN(C(=O)C3Cc4ccccc4N3C(C)=O)CC2)c1 (configuration not stated) | inactive | 
54 | COc1ccc(CC(=O)NCCc2sc3nc(-c4ccc(OC)cc4)nn3c2C)cc1 | inconclusive: -12.1% [at 46 µM] | 

Later entries

Row | SMILES | ratio change, negative = inhibition | Potency
64 | O=C(Cn1c(=O)oc2cc(Cl)ccc21)Nc1cccc(C(F)(F)F)c1 | inconclusive: 6.77% [at 46 µM] | 
65 | CCOC(=O)c1c(C)[nH]c(C(=O)COC(=O)COc2ccccc2C=O)c1C | inconclusive: -28.3% | 
66 | COc1cc2c(cc1OC)C(Cc1ccc(O)cc1)N(C)CC2 (configuration not stated) | inactive | 
67 | CCOc1ccc(Cl)cc1S(=O)(=O)N1CCN(c2ccc(F)cc2)CC1 |  | inconclusive: 17.8 µM [fluorescent, single point]
68 | COCCNC(=O)NC(=O)COC(=O)c1cc([N+](=O)[O-])ccc1Sc1nc(C)cs1 | inconclusive: 5.64% | 
69 | Cc1nn(Cc2c(Cl)cccc2Cl)c(C)c1NC(=O)CCCn1nc([N+](=O)[O-])c(Cl)c1C | inactive | 
70 | O=C(NCc1cc(C(F)(F)F)cc(C(F)(F)F)c1)C1CC(c2ccccc2[N+](=O)[O-])=NO1 (configuration not stated) |  | inconclusive: 35.5 µM [fluorescent, single point]
71 | CCOc1ccc(C(=O)NCC(=O)OCC(=O)N2CCCCC2)cc1 | inactive | 
72 | CCc1cccc(C)c1NC(=O)c1cc(S(=O)(=O)NCc2ccccc2Cl)ccc1F | inactive | 
73 | O=C(Nc1ccccc1Br)c1ccccc1-c1ccccc1 | inconclusive: -28.3% | 
74 | C[C@@H]1C[C@H]2[C@@H]3C[C@H](F)C4=CC(=O)C=C[C@@]4(C)[C@]3(F)[C@H](O)C[C@]2(C)[C@@]1(O)C(=O)CO | inconclusive: -9.41% | 
75 | O=C(CCCCn1c(=O)c2ccccc2n(Cc2ccc(F)cc2)c1=O)NCc1ccco1 | inactive | 
76 | O=C1CCC(=O)N1OCCOc1ccccc1 | inconclusive: 27.3% [at 46 µM] | 
77 | Cc1cc(C)nc(Sc2ncnc(N)c2[N+](=O)[O-])n1 |  | inconclusive: 35.5 µM [cytotoxic, single point]
78 | CC1(C)CC(=O)C2=C(C1)N(Cc1ccco1)C(=O)C2(NC(=O)c1cccnc1)C(F)(F)F (configuration not stated) | inactive | 
79 | COc1ccc(C(C)(C)C)cc1NC(=O)COC(=O)C(C)C | inconclusive: -1.25% [at 46 µM] | 
80 | N#Cc1ccsc1NC(=O)CN1CCN(c2ccc(O)cc2)CC1 | inconclusive: -33.1% | 
81 | COc1ccc(CNc2ccc3c(c2)nc(C)n3C)cc1 | inactive | 
82 | O=C(Nn1cc(C(=O)N2CCN(c3ccccc3F)CC2)c2ccccc2c1=O)c1cnccn1 | inconclusive: -14.6% | 
